Results published in publication PMC12033915.
No constants are given. Whether binding was seen depends on the method and setting. In cells and extracts the contact can be indirect. A yes stands for co-enrichment or nearness to the bait. Other partners may have been found.

Sequences of proteins named here, by UniProt entry; tags and fusion partners are left off.
UniProt Q16630: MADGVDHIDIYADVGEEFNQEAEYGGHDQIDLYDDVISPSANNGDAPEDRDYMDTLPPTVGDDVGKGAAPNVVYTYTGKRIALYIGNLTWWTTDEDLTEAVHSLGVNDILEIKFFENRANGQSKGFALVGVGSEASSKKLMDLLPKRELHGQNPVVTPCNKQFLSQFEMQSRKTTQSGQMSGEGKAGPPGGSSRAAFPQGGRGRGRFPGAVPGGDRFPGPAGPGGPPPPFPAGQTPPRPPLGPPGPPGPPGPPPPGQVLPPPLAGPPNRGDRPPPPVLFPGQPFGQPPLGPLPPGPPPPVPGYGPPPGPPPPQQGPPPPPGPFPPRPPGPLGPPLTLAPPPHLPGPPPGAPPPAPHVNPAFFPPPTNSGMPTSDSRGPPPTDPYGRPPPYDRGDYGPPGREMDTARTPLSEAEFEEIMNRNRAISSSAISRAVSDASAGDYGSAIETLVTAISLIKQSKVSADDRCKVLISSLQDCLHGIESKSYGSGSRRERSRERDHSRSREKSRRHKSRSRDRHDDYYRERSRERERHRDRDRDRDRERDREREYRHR
UniProt P11940: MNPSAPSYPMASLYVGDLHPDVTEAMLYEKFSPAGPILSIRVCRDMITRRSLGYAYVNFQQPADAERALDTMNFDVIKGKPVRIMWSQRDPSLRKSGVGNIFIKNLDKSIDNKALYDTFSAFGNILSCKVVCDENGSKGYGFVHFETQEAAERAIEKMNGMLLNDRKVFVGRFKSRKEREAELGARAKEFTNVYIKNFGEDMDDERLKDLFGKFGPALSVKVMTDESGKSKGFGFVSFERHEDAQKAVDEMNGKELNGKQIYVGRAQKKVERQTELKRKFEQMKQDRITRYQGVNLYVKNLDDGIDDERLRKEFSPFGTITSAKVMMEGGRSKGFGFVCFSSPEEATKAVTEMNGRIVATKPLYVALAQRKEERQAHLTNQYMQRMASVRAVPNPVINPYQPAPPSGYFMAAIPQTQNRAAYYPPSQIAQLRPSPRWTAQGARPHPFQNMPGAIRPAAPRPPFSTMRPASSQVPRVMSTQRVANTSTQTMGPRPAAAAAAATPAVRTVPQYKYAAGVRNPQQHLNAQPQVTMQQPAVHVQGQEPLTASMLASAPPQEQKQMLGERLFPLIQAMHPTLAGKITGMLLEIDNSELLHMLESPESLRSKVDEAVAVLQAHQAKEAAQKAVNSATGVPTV

T1: SLC27A5 (bait of the IP-MS) (UniProt Q9Y2P5)
T1 sequence: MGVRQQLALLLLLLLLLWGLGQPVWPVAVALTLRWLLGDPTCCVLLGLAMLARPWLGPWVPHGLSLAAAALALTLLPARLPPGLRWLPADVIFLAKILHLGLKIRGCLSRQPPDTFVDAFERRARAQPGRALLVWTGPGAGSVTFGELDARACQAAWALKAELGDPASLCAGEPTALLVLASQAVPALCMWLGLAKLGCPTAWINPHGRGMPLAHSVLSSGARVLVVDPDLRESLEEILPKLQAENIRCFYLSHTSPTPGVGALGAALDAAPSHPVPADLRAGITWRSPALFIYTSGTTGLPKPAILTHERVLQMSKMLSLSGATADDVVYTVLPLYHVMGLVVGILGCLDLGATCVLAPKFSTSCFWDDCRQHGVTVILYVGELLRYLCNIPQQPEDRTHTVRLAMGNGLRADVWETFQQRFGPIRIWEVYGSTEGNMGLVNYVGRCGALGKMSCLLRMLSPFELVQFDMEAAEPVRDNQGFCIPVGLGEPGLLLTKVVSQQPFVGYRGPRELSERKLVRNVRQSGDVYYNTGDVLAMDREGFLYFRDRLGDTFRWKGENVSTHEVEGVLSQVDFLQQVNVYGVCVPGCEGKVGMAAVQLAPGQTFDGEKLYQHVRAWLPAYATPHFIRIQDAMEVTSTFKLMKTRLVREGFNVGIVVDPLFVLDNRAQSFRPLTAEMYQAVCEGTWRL


Target: T1, SLC27A5 (bait of the IP-MS)
Test: affinity purification with mass spectrometry; IP-MS of SLC27A5; cells, antibody and construct not told

binding | Molecule
binds | CPSF6 (from UniProt Q16630 1-551)
binds | PABPC1 (hit of the IP-MS of SLC27A5) (from UniProt P11940 1-636)
binds | EXOSC10 (protein, UniProt Q01780 1-885) MAPPSTREPRVLSATSATKSDGEMVLPGFPDADSFVKFALGSVVAVTKASGGLPQFGDEYDFYRSFPGFQAFCETQGDRLLQCMSRVMQYHGCRSNIKDRSKVTELEDKFDLLVDANDVILERVGILLDEASGVNKNQQPVLPAGLQVPKTVVSSWNRKAAEYGKKAKSETFRLLHAKNIIRPQLKFREKIDNSNTPFLPKIFIKPNAQKPLPQALSKERRERPQDRPEDLDVPPALADFIHQQRTQQVEQDMFAHPYQYELNHFTPADAVLQKPQPQLYRPIEETPCHFISSLDELVELNEKLLNCQEFAVDLEHHSYRSFLGLTCLMQISTRTEDFIIDTLELRSDMYILNESLTDPAIVKVFHGADSDIEWLQKDFGLYVVNMFDTHQAARLLNLGRHSLDHLLKLYCNVDSNKQYQLADWRIRPLPEEMLSYARDDTHYLLYIYDKMRLEMWERGNGQPVQLQVVWQRSRDICLKKFIKPIFTDESYLELYRKQKKHLNTQQLTAFQLLFAWRDKTARREDESYGYVLPNHMMLKIAEELPKEPQGIIACCNPVPPLVRQQINEMHLLIQQAREMPLLKSEVAAGVKKSGPLPSAERLENVLFGPHDCSHAPPDGYPIIPTSGSVPVQKQASLFPDEKEDNLLGTTCLIATAVITLFNEPSAEDSKKGPLTVAQKKAQNIMESFENPFRMFLPSLGHRAPVSQAAKFDPSTKIYEISNRWKLAQVQVQKDSKEAVKKKAAEQTAAREQAKEACKAAAEQAISVRQQVVLENAAKKRERATSDPRTTEQKQEKKRLKISKKPKDPEPPEKEFTPYDYSQSDFKAFAGNSKSKVSSQFDPNKQTPSGKKCIAAKKIKQSVGNKSMSFPTGKSDRGFRYNWPQR
